Only a part is listed here, and it is no random draw. At the low end of the ranking the order means little.
Each sequence was assayed against T1, ELF3 (UniProt P78545) (assay: DAPPL (digital affinity profiling via proximity ligation, sequencing)). Settings: 10 mM Tris-HCl pH 7.5, 50 mM NaCl, 1 mM DTT, 4% glycerol, room temperature, 30 min; GST-TFs on glutathione beads, 16-mer random dsDNA library, 0.1% …; high values mean tight binding; double strand, one strand shown; scale: fold enrichment (6-mer frequency, TF over GST control).
T1 sequence: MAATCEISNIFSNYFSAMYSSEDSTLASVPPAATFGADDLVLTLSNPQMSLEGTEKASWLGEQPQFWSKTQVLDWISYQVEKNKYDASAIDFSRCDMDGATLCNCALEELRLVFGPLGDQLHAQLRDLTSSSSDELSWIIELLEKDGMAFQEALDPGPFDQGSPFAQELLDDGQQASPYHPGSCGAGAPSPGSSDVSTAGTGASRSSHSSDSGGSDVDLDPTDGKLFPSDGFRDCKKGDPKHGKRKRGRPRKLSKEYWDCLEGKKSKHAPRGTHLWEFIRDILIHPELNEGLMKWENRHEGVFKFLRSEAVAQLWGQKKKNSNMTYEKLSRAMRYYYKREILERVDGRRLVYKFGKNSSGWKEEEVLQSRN

Amino acid sequences for entries named in this document (tags omitted). A change or cut given only in a name is not applied to a line headed by its entry.
UniProt Q9Y603: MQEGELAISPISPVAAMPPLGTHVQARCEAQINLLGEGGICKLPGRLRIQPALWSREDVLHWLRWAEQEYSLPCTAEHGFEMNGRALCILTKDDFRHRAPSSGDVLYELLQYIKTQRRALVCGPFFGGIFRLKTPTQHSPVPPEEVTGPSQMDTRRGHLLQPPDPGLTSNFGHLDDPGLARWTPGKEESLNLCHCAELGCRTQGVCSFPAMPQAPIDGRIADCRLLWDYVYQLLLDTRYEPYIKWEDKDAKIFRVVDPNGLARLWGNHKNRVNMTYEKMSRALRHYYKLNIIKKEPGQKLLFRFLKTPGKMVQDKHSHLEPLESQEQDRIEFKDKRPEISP

Row | Sequence | binding signal
1 | GCCCGA | 1.21
2 | ACCCAA | 1.26
3 | GATCCA | 1.15
4 | GCACTG | 0.926
5 | CCTCAG | 1.35
6 | TCAAAC | 1.24
7 | CGTCTG | 0.975
8 | GCTGCA | 0.859
9 | CAATGG | 0.958
10 | TTGTAG | 1.03
11 | TGTCAC | 1.2
12 | AGCGCC | 1.09
13 | ACTTGT | 1.16
14 | AAAGCC | 1.01
15 | TCGACG | 1.06
16 | ACGATA | 1.04
17 | TAGGAT | 1.03
18 | CCGACA | 1.18
19 | TGCTTG | 0.971
20 | AGCGGC | 0.861

Row | Sequence | binding signal
21 | CGCTCG | 1.35
22 | GGTCTG | 0.941
23 | TTGTCA | 0.923
24 | TAGATC | 0.998
25 | GTGCGC | 0.791
26 | ATATAA | 1.28
27 | TCGCCC | 1.22
28 | TTCACA | 0.974
29 | GCAAAT | 1.17
30 | TGCGCA | 1.06
31 | CGACTG | 0.986
32 | GCAATG | 1.17
33 | TTGGGG | 1.24
34 | ATTGCA | 1.13
35 | GCTCAC | 1.49
36 | GATTTA | 1.02
37 | CAAAGC | 1.03
38 | TTATAA | 1.32
39 | ATGCTG | 1.26
40 | CCGGTG | 0.871

These sequences were tested against ETV7 (UniProt Q9Y603) in the same assay as above. Settings: 10 mM Tris-HCl pH 7.5, 50 mM NaCl, 1 mM DTT, 4% glycerol, room temperature, 30 min; GST-TFs on glutathione beads, 16-mer random dsDNA library, 0.1% …; high values mean tight binding; double strand, one strand shown; scale: fold enrichment (6-mer frequency, TF over GST control).

Row | Sequence | binding signal
41 | GCCCGA | 0.971
42 | ACCCAA | 1.14
43 | GATCCA | 0.969
44 | TCAAAC | 1.11
45 | CGTCTG | 1.02
46 | GCTGCA | 0.96
47 | TGTCAC | 1.29
48 | AGCGCC | 0.982
49 | ACTTGT | 1.2
50 | AAAGCC | 0.93
51 | ACGATA | 1.22
52 | TAGGAT | 0.988
53 | TGCTTG | 1.19
54 | AGCGGC | 1.01
55 | CGCTCG | 0.939
56 | GGTCTG | 0.943
57 | TTGTCA | 1.2
58 | TAGATC | 1.06
59 | GTGCGC | 0.978
60 | TTCACA | 1.29
61 | CGACTG | 0.984
62 | GCAATG | 1.14
63 | TTGGGG | 1.12
64 | GCTCAC | 1.4
65 | GATTTA | 0.948
66 | CAAAGC | 0.983
67 | TTATAA | 1.21
68 | ATGCTG | 0.988
69 | CCGGTG | 1.04
